This assay deals with Flag-TRIM27-ΔR (TRIM27 lacking the RING domain). Kind of assay: co-IP; 293T cells transfected with Myc-TAB2 and Flag-TRIM27 or Flag-TRIM27-ΔR; lysates immunoprecipitated with anti-Flag, blotted with anti-Flag or anti-Myc; extraction buffer 50 mM Tris-HCl pH 8.0, 150 mM NaCl, 1 mM EDTA, 0.5% Nonidet P40.

Results are given in words; binding and its absence hold for the method and conditions named. In cells and extracts the contact can be indirect. A result given as binding can be weak or reduced; the word gives no strength. Where a sequence is shown, tags or fusion partners need not be part of it.

B1: Myc-TAB2 (TAK1 binding protein 2) (protein, UniProt Q9NYJ8 1-693)
chain: MAQGSHQIDFQVLHDLRQKFPEVPEVVVSRCMLQNNNNLDACCAVLSQESTRYLYGEGDLNFSDDSGISGLRNHMTSLNLDLQSQNIYHHGREGSRMNGSRTLTHSISDGQLQGGQSNSELFQQEPQTAPAQVPQGFNVFGMSSSSGASNSAPHLGFHLGSKGTSSLSQQTPRFNPIMVTLAPNIQTGRNTPTSLHIHGVPPPVLNSPQGNSIYIRPYITTPGGTTRQTQQHSGWVSQFNPMNPQQVYQPSQPGPWTTCPASNPLSHTSSQQPNQQGHQTSHVYMPISSPTTSQPPTIHSSGSSQSSAHSQYNIQNISTGPRKNQIEIKLEPPQRNNSSKLRSSGPRTSSTSSSVNSQTLNRNQPTVYIAASPPNTDELMSRSQPKVYISANAATGDEQVMRNQPTLFISTNSGASAASRNMSGQVSMGPAFIHHHPPKSRAIGNNSATSPRVVVTQPNTKYTFKITVSPNKPPAVSPGVVSPTFELTNLLNHPDHYVETENIQHLTDPTLAHVDRISETRKLSMGSDDAAYTQALLVHQKARMERLQRELEIQKKKLDKLKSEVNEMENNLTRRRLKRSNSISQIPSLEEMQQLRSCNRQLQIDIDCLTKEIDLFQARGPHFNPSAIHNFYDNIGFVGPVPPKPKDQRSIIKTPKTQDTEDDEGAQWNCTACTFLNHPALIRCEQCEMPRHF
Consider B1, for which the binding result is “binds”.

Values taken from publication PMC12008848.
